{"source": "PubChem BioAssay AID504791, Drosophila RNAi Screening Center, 2011", "purpose": "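Factors in Argonaute-based small RNA production and activity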 (primary screen)", "system": "Drosophila S2-derived reporter cells", "reagents": "long dsRNA against Drosophila genes, about 150-250 ng dsRNA per well (siRNA assay); about 80-120 ng (miRNA assay)", "duration": "about 5 days (siRNA assay); about 4 days (miRNA assay)", "challenge": "copper sulfate induction of reporters: 25 µM (siRNA assay); 200 mM stated (miRNA assay), 1-2 days before reading", "measurement": "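Dual luciferase assay: Renilla to firefly signal ratio in each well, scaled to the mean ratio of its plate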", "units": "stable assay Renilla, run 1 in luminescence; stable assay firefly, run 1 in luminescence", "call rule": "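First-pass picks had plate-scaled ratios over 1.5 for the siRNA assay, over 1.6 for the miRNA assay, or under 0.6; two distinct dsRNAs had to score alike on retest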", "note": "The screen tested about 23,000 reagents; shown is a random part of those that have a named target and a result. In the full data, 199 (0.86%) were called active. 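Plate-scaled ratios behind the calls are not deposited; printed light signals are raw; many rows marked increased or decreased are still called inactive.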 Entries without a mark were called inactive. Names joined by + are all predicted targets of the reagent. No sequences are given here. Not given: the direction of the score."}
The first 2 entries, to show the layout:
{"gene": "CG5107 (GeneID 43084)", "PubChem SID": "SID104195508", "stable assay Renilla, run 1": 8178, "stable assay firefly, run 1": 4.61e5}
{"gene": "CG13898 (GeneID 38092)", "PubChem SID": "SID104188160", "stable assay Renilla, run 1": 5743, "stable assay firefly, run 1": 3.00e5}

The list itself, from the first entry:
{"gene": "CG5107 (GeneID 43084)", "PubChem SID": "SID104195508", "stable assay Renilla, run 1": 8178, "stable assay firefly, run 1": 4.61e5}
{"gene": "CG13898 (GeneID 38092)", "PubChem SID": "SID104188160", "stable assay Renilla, run 1": 5743, "stable assay firefly, run 1": 3.00e5}
{"gene": "CG15879 (GeneID 38274)", "PubChem SID": "SID104188279", "stable assay Renilla, run 1": 6687, "stable assay firefly, run 1": 3.27e5}
{"gene": "ogre (GeneID 45382)", "PubChem SID": "SID104198601", "stable assay Renilla, run 1": 8455, "stable assay firefly, run 1": 4.70e5}
{"gene": "CG34430 (GeneID 5740489)", "PubChem SID": "SID104186291", "stable assay Renilla, run 1": 6551, "stable assay firefly, run 1": 3.59e5}
{"gene": "Indy (GeneID 40049)", "PubChem SID": "SID104190185", "stable assay Renilla, run 1": 6778, "stable assay firefly, run 1": 2.72e5}
{"gene": "Cnx99A + Cnx14D", "PubChem SID": "SID104196402", "stable assay Renilla, run 1": 6067, "stable assay firefly, run 1": 3.79e5}
{"gene": "Cbl (GeneID 38961)", "PubChem SID": "SID104190556", "stable assay Renilla, run 1": 6096, "stable assay firefly, run 1": 4.42e5}
{"gene": "Cbl (GeneID 38961)", "PubChem SID": "SID104190903", "stable assay Renilla, run 1": 6491, "stable assay firefly, run 1": 5.29e5}
{"gene": "Mrp5 (GeneID 42362)", "PubChem SID": "SID104195389", "stable assay Renilla, run 1": 8105, "stable assay firefly, run 1": 3.96e5}
{"gene": "Mrp5 (GeneID 42362)", "PubChem SID": "SID104195390", "stable assay Renilla, run 1": 9006, "stable assay firefly, run 1": 4.51e5}
{"gene": "dmt (GeneID 41180)", "PubChem SID": "SID104196724", "stable assay Renilla, run 1": 8939, "stable assay firefly, run 1": 4.51e5}
{"gene": "CG8159 (GeneID 41040)", "PubChem SID": "SID104196184", "stable assay Renilla, run 1": 6832, "stable assay firefly, run 1": 4.02e5}
{"gene": "CG15635 (GeneID 33665)", "PubChem SID": "SID104180262", "stable assay Renilla, run 1": 3559, "stable assay firefly, run 1": 3.89e5}
{"gene": "CG15635 (GeneID 33665)", "PubChem SID": "SID104202232", "stable assay Renilla, run 1": 4635, "stable assay firefly, run 1": 4.84e5}
{"gene": "Pbp95 (GeneID 40949)", "PubChem SID": "SID104195240", "stable assay Renilla, run 1": 8005, "stable assay firefly, run 1": 4.64e5}
{"gene": "sut1 (GeneID 35774)", "PubChem SID": "SID104187492", "stable assay Renilla, run 1": 7640, "stable assay firefly, run 1": 4.05e5}
{"gene": "CG14915 (GeneID 34536)", "PubChem SID": "SID104182191", "stable assay Renilla, run 1": 5139, "stable assay firefly, run 1": 2.83e5}
{"gene": "Ndg (GeneID 36089)", "PubChem SID": "SID104186015", "stable assay Renilla, run 1": 8820, "stable assay firefly, run 1": 3.75e5}
{"gene": "CG31998 (GeneID 43774)", "PubChem SID": "SID104196929", "stable assay Renilla, run 1": 8933, "stable assay firefly, run 1": 4.79e5}
{"gene": "CG31998 (GeneID 43774)", "PubChem SID": "SID104196930", "stable assay Renilla, run 1": 6063, "stable assay firefly, run 1": 3.21e5}
{"gene": "dock (GeneID 33262)", "PubChem SID": "SID104180604", "stable assay Renilla, run 1": 10725, "stable assay firefly, run 1": 2.25e5}
{"gene": "Parg (GeneID 31329)", "PubChem SID": "SID104198488", "stable assay Renilla, run 1": 7095, "stable assay firefly, run 1": 4.24e5}
{"gene": "CG42827 + CG42828", "PubChem SID": "SID104195908", "stable assay Renilla, run 1": 3435, "stable assay firefly, run 1": 3.99e5}
{"gene": "CG1698 (GeneID 36006)", "PubChem SID": "SID104186432", "stable assay Renilla, run 1": 8206, "stable assay firefly, run 1": 3.41e5}
{"gene": "CG13021 (GeneID 31323)", "PubChem SID": "SID104197685", "stable assay Renilla, run 1": 7307, "stable assay firefly, run 1": 5.01e5}
{"gene": "CG34057 (GeneID 3885645)", "PubChem SID": "SID104188167", "stable assay Renilla, run 1": 5504, "stable assay firefly, run 1": 3.78e5}
{"gene": "Fam92 (GeneID 34654)", "PubChem SID": "SID104182744", "stable assay Renilla, run 1": 30237, "stable assay firefly, run 1": 5.24e5}
